Experimental data: paper PMC9507357

Chains of the proteins cited; added tags and fusions are not shown.
UniProt Q9BRP0: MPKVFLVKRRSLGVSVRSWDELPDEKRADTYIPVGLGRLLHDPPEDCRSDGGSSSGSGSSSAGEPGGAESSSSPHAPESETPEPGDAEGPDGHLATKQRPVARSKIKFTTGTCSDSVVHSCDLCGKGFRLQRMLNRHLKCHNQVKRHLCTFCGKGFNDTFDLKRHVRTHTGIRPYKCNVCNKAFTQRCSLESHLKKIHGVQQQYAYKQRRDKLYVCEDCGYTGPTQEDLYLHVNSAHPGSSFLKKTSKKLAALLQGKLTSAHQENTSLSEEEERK
UniProt Q00987: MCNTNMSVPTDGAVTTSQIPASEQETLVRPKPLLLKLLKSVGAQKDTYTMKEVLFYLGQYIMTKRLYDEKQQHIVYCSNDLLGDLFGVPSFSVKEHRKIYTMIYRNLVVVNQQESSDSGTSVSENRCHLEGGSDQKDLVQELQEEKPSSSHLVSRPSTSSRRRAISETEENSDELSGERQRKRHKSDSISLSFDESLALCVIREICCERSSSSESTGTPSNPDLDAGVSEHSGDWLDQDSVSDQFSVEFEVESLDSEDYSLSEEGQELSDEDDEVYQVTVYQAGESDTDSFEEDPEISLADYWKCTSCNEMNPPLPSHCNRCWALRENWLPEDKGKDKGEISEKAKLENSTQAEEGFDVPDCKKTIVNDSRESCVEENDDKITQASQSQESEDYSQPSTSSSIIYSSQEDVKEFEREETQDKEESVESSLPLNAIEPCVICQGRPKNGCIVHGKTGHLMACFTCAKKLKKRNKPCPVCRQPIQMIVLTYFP
UniProt O75376: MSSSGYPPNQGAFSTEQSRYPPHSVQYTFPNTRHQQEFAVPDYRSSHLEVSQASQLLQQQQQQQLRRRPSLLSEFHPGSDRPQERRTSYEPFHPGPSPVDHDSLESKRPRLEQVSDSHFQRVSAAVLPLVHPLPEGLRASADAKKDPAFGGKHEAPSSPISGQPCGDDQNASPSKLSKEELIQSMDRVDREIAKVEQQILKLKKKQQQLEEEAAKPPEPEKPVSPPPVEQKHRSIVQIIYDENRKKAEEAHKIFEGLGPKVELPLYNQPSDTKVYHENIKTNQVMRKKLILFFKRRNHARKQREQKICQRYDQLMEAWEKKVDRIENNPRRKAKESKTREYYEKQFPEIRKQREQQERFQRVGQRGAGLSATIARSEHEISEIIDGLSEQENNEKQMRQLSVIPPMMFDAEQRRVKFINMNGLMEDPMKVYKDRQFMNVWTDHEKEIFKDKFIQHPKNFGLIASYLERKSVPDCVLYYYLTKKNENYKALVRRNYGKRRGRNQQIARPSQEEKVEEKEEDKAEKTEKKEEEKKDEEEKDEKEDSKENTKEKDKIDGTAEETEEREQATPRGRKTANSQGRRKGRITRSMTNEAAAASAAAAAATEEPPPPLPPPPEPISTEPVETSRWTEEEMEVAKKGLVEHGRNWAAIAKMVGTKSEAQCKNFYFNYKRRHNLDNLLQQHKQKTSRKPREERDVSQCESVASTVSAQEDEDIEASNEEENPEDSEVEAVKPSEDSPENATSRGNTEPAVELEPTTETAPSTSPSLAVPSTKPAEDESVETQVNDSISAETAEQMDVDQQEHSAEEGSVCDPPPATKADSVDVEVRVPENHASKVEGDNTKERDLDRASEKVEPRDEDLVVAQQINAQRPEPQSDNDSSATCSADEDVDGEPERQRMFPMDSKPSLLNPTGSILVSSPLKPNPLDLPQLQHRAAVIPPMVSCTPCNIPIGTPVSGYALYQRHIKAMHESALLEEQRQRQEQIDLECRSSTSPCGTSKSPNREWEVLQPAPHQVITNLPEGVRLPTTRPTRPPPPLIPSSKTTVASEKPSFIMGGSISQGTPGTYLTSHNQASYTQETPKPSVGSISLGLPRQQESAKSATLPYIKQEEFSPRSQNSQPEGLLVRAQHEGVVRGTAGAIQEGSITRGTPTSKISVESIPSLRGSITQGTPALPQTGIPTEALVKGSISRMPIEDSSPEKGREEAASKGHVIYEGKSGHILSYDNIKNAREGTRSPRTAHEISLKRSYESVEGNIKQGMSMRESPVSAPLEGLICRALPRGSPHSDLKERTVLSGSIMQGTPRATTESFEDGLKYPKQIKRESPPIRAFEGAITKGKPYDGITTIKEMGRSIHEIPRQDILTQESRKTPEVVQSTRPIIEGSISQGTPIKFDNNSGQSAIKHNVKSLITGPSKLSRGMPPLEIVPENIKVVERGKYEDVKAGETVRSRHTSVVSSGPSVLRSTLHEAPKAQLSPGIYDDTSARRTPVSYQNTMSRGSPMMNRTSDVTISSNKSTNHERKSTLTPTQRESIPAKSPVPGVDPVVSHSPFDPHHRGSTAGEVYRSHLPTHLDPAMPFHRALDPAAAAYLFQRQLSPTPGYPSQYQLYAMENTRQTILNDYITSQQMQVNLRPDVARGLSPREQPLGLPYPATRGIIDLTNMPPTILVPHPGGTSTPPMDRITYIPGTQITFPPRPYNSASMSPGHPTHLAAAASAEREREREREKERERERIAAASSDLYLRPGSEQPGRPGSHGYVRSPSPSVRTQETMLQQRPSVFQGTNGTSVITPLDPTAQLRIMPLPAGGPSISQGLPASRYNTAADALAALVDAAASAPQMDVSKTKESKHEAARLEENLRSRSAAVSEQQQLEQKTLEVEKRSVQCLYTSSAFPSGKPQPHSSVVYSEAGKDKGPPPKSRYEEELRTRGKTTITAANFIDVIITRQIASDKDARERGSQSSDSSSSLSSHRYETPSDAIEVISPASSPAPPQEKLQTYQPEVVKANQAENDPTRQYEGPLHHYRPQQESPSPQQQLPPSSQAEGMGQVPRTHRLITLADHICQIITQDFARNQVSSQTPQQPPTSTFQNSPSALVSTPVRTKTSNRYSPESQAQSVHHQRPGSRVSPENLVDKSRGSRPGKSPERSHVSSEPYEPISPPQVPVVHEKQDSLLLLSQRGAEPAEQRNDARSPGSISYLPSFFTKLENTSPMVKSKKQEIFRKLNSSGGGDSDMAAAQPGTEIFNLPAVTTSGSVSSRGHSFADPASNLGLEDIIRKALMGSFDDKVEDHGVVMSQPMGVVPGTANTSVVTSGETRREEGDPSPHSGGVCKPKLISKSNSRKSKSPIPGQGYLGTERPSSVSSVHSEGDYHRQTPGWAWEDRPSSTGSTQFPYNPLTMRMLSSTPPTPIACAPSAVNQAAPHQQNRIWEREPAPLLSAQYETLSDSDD
UniProt P35222: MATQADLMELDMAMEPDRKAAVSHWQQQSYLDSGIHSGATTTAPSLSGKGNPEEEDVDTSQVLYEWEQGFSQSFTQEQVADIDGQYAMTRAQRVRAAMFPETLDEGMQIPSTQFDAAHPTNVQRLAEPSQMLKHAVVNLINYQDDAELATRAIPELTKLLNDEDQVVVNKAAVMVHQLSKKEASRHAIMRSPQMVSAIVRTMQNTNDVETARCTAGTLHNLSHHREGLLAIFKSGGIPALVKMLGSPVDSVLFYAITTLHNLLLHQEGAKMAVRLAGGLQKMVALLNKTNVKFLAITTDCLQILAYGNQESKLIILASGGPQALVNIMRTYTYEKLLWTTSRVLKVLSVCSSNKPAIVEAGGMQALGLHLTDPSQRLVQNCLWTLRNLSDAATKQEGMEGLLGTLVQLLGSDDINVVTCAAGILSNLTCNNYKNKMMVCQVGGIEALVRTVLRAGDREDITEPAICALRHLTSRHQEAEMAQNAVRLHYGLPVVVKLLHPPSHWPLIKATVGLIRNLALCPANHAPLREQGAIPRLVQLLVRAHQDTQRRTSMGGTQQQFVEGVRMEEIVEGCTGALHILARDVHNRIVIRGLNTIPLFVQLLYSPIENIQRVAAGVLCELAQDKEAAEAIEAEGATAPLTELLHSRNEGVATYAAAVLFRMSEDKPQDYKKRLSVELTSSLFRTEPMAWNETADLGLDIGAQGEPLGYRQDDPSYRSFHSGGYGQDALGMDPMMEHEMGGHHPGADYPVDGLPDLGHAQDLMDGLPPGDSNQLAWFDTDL

The substances below were run against FLAG-tagged OVOL2 (OVO-like zinc finger 2) (UniProt Q9BRP0) (assay: affinity purification with mass spectrometry; lysate of 10^8 MCF7 cells stably expressing FLAG-OVOL2 (control: FLAG); anti-FLAG agarose 4 h at 4 °C in IP buffer (20 mM Tris pH 8.0, 0.25 M NaCl, 0.5% NP-40, 5 mM EDTA); eluted with FLAG peptide; SDS-PAGE, silver stain, differential bands by nanoLC-MS/MS).

binding | Substance
binds | MDM2 (mouse double minute 2 homolog), endogenous (from UniProt Q00987 1-491) (enzyme)
binds | NCoR (nuclear receptor co-repressor), endogenous (from UniProt O75376 1-2440)
binds | β-catenin, endogenous (from UniProt P35222 1-781)

These are yes or no findings as the source states them, for the method shown. In cells and extracts the contact can be indirect. These calls come from enrichment with a bait or labelling near it, and not all partners need be listed.
